{"sequences": {"note": "Chains of the proteins cited; added tags and fusions are not shown.", "UniProt O54851": "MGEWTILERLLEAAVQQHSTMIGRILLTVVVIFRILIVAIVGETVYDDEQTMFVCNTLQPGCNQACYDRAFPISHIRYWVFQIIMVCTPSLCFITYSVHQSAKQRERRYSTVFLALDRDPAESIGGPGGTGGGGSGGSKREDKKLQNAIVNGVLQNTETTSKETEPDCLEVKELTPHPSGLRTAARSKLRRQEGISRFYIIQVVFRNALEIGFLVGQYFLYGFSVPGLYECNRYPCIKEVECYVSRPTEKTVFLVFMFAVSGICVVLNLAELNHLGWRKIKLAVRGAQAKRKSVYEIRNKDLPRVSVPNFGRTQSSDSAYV", "UniProt Q9Y6I9": "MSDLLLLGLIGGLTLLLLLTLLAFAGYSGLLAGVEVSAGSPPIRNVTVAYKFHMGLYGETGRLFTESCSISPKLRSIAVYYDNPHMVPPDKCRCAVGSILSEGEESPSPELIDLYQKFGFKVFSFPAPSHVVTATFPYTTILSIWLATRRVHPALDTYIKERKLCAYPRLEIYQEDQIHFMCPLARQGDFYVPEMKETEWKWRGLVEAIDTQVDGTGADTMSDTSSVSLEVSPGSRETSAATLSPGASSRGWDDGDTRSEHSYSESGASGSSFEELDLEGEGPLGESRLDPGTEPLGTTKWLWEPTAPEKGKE"}, "source": "paper PMC10637963", "target": "Cx36-EGFP (connexin 36 with a C-terminal EGFP tag) (UniProt O54851)", "assay": "proximity labelling; BioID: HEK293T cotransfected with Cx36-EGFP, Cx36-SNAP and V5-dGBP-TurboID (GFP nanobody directs TurboID to Cx36-EGFP); 50 uM biotin for 3 h; lysis in 1% Triton X-100; streptavidin beads overnight at 4 C, washes incl. 2% SDS; eluates read by mass spectrometry and Western blot", "note": "No constants are given. Whether binding was seen depends on the method and setting. In cells and extracts the contact can be indirect. A yes stands for co-enrichment or nearness to the bait. Other partners may have been found."}
{"substance": "Cx36-SNAP (connexin 36 with a C-terminal SNAP-tag) (from UniProt O54851 1-321)", "values": [{"measurement": "binding", "result": "binds"}]}
{"substance": "testis-expressed protein 264 (Tex264) (from UniProt Q9Y6I9 1-313)", "values": [{"measurement": "binding", "result": "binds"}]}
